This passage reports log2 fold change results from the supplement of paper PMC10849652.

Protein sequences, listed by entry. Tags and fused reporters are not part of them. Lines headed by an entry give the natural chain unless they say otherwise; changes in a name come on top.
UniProt Q6NXT1: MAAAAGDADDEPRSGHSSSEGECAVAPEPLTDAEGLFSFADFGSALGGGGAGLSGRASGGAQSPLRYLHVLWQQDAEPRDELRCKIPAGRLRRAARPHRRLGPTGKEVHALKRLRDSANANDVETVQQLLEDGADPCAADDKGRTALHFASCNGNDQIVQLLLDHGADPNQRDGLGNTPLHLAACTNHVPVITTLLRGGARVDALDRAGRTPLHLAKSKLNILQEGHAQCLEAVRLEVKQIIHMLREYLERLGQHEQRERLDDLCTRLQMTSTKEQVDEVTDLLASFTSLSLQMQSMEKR
UniProt P17707: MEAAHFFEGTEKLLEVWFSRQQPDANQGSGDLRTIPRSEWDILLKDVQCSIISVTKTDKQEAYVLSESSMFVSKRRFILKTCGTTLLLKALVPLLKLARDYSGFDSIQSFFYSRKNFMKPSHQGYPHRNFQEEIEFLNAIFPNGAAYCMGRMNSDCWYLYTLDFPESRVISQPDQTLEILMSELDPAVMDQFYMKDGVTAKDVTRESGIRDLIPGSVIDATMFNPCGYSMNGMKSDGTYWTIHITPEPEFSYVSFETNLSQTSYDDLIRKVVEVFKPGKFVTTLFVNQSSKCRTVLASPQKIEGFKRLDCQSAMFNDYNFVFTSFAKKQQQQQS
UniProt P50995, whole entry, looked up: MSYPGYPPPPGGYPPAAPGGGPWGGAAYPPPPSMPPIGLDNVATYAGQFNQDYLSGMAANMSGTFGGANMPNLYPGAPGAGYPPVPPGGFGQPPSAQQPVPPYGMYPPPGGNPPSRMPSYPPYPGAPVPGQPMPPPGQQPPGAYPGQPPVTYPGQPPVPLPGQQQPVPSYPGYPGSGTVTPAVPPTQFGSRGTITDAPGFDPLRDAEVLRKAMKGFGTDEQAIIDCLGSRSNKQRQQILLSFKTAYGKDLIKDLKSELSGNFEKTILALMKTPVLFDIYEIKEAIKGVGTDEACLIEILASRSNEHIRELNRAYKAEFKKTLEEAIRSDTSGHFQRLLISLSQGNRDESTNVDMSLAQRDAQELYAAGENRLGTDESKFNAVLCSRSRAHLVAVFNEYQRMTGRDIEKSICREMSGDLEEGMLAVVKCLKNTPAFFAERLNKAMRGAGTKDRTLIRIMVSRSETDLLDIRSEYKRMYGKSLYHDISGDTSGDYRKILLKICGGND
UniProt P00352: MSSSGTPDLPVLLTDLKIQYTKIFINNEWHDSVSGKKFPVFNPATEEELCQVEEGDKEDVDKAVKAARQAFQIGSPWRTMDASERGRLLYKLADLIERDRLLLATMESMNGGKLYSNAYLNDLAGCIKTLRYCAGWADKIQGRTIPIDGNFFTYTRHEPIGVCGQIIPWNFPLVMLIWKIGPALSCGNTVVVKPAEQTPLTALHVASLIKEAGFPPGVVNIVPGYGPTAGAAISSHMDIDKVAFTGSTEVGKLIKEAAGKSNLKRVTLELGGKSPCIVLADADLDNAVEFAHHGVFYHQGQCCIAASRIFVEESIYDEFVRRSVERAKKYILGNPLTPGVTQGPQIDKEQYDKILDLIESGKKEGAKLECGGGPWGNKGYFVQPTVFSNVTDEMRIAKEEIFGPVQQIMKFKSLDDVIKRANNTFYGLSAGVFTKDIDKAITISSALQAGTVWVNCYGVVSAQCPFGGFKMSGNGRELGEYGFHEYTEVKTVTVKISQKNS
UniProt O15084: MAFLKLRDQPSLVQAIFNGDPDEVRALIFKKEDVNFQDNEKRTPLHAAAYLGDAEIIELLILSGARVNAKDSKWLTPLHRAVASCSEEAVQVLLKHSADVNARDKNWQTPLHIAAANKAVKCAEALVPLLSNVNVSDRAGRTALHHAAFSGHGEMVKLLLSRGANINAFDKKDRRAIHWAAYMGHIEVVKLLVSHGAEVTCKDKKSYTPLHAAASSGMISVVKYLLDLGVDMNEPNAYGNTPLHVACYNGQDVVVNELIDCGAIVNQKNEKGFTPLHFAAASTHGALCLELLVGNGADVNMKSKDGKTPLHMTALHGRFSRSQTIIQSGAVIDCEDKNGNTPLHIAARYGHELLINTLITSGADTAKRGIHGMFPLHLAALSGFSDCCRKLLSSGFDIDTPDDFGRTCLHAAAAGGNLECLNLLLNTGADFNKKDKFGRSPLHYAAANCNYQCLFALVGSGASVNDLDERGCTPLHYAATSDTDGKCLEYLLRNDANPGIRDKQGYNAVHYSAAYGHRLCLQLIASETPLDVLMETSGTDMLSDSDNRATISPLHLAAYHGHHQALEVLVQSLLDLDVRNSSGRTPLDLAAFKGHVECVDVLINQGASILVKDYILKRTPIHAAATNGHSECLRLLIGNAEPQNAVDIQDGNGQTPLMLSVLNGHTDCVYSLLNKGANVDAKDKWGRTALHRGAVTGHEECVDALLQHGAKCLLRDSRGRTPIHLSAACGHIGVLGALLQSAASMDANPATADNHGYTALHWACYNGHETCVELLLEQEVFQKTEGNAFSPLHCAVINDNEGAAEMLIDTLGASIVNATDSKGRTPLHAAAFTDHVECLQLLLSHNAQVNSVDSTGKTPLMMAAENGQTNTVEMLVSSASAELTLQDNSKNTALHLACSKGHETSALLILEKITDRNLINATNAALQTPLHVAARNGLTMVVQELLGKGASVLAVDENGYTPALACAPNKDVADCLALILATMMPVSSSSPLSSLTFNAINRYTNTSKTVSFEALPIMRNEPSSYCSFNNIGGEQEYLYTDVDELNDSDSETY
UniProt O14617: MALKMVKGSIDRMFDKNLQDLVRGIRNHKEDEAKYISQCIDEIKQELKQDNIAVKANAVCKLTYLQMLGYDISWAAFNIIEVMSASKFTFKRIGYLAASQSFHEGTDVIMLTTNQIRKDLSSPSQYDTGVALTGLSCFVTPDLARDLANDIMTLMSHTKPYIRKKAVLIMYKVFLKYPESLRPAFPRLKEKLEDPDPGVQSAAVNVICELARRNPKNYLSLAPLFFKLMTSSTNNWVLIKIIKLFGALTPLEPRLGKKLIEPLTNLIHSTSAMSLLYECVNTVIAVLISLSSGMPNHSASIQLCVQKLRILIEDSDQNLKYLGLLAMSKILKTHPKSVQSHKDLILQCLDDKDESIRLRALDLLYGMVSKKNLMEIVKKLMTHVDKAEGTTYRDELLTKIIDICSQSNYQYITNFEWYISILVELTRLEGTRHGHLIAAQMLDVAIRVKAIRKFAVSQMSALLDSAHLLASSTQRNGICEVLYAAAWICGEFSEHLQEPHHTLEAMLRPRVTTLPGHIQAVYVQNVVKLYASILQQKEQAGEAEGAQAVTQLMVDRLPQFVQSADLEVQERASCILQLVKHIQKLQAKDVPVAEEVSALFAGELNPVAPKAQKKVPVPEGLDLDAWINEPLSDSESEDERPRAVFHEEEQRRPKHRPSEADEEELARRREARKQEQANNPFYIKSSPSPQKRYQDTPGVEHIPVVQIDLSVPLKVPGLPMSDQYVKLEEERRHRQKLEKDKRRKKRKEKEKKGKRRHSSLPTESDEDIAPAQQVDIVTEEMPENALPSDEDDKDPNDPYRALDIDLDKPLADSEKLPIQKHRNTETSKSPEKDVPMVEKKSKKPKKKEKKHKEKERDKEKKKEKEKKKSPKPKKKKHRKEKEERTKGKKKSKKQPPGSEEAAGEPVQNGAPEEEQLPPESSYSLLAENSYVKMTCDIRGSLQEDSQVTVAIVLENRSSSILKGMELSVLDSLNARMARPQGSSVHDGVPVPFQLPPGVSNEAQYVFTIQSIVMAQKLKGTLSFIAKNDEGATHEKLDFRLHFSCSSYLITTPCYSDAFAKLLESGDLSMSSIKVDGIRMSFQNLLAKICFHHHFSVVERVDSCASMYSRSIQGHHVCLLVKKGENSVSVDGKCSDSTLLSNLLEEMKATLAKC
UniProt Q10567: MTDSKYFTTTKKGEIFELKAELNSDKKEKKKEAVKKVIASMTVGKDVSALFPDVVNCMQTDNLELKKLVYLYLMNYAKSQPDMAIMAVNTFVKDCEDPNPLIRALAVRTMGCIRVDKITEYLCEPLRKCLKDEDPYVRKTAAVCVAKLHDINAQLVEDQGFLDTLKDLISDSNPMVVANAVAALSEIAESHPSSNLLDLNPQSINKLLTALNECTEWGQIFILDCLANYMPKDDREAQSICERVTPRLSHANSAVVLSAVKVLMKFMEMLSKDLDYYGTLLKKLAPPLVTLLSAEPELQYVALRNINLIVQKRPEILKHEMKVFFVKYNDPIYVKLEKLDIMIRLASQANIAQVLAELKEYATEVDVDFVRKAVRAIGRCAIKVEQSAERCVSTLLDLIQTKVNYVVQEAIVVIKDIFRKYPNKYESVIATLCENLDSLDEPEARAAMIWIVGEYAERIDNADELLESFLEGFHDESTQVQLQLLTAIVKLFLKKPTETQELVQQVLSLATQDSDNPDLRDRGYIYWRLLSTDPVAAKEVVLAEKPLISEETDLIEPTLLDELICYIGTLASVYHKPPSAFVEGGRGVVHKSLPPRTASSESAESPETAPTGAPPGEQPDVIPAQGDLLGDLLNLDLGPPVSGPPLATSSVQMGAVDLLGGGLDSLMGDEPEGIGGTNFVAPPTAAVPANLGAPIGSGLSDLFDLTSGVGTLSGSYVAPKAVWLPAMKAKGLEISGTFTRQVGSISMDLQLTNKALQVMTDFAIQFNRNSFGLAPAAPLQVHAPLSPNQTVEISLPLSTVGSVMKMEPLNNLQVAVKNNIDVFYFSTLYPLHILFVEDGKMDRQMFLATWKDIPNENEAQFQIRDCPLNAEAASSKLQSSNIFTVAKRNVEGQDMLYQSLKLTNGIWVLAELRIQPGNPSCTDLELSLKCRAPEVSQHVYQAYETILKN
UniProt Q9H553: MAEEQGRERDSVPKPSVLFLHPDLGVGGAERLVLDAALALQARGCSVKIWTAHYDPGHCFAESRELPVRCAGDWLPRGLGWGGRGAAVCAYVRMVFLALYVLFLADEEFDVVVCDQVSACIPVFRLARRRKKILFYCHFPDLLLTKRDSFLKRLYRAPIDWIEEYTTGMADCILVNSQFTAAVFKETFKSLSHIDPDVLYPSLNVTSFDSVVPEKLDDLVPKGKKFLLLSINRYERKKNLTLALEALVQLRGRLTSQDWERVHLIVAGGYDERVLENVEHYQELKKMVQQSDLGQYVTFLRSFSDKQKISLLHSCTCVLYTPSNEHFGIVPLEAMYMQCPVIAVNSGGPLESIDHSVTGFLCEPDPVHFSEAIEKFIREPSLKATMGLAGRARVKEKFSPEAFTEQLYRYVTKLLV
UniProt Q9UJX6, whole entry, looked up: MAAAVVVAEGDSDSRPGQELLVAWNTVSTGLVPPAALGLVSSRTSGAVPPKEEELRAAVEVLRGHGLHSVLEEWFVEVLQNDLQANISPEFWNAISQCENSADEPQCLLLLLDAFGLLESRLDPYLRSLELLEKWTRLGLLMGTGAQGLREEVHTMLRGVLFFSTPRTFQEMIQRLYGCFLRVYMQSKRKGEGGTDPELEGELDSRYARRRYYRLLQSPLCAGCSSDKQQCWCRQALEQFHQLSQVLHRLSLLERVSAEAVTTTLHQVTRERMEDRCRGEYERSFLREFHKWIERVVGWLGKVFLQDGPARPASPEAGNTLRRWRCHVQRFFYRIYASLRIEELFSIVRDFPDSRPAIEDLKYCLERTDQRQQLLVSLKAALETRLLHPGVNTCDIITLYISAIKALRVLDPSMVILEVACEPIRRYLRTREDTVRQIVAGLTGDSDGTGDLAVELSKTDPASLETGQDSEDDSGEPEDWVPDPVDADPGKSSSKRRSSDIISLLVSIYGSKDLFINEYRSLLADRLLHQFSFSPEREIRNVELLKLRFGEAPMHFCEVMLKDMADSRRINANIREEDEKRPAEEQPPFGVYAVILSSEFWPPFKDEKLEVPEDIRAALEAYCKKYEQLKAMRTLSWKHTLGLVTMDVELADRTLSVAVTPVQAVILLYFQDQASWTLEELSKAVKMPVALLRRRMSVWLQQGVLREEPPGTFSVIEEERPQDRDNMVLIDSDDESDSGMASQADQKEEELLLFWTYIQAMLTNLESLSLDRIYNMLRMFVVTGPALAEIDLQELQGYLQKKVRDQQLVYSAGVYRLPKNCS
UniProt O94788: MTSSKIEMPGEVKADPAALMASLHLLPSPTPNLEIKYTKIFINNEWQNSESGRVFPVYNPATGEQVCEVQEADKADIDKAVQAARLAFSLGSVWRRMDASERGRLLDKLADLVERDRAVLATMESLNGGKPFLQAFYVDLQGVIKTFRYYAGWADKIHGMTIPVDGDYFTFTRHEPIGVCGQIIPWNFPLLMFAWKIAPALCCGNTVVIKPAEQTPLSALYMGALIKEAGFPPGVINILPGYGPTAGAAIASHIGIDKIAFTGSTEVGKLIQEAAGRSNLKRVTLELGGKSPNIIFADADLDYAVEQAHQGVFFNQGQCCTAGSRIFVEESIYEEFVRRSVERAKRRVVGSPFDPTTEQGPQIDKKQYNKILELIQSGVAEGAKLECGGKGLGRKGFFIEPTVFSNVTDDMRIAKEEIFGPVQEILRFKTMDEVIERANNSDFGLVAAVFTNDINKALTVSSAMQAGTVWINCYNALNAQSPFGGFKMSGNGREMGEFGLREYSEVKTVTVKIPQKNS

This is one part of the list.

Compound in the assay: C=CC(=O)N1CCC[C@@H](n2nc(-c3ccc(Oc4ccccc4)cc3)c3c(N)ncnc32)C1 [ibrutinib]
As to the kind of experiment: log2 fold change, soluble protein after heating vs DMSO (PISA); higher = thermal stabilisation; K562 lysate, 10 uM; active = over 0.2 and 3.5 SD of the protein, either way, in both replicates (recomputed). A digest of the protocol: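 Pellets of K562 cells were dounce-homogenised in PBS pH 7.4 with 1 mM MgCl2, and the crude extract was held at 1 mg/mL protein for a 30 min treatment with 10 μM compound. Aliquots were heated for 3 min over 48°C-58°C and pooled before NP-40 was added to 0.5% at 4°C. The supernatant from 21,000xg for 90 min was quantified by TMTpro 16plex LC-MS/MS with channel sums equalised. Values are reported from duplicates as log-two fold change in thermal stability relative to solvent controls.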
In the case of ANKRD54 (UniProt Q6NXT1), the log2 fold change was inactive: -0.054.

Consider ALDH6A1 (UniProt Q02252), for which the log2 fold change was inactive: 0.128.

ALKBH3 (UniProt Q96Q83): the log2 fold change is inactive: 0.042.

With AMD1 (UniProt P17707), the log2 fold change was inactive: -0.031.

For ANPEP (UniProt P15144), the log2 fold change was inactive: 0.002.

As to ANXA11 (UniProt P50995), the log2 fold change was inactive: -0.005.

In the case of ALDH1A1 (UniProt P00352), the log2 fold change was inactive: 0.092.

Take ALDH1B1 (UniProt P30837): the log2 fold change was inactive: 0.008.

Take ANK1 isoform 14 (UniProt P16157): the log2 fold change is inactive: 0.017.

Take AP3S1 (UniProt Q92572): the log2 fold change was inactive: 0.025.

Consider ANKRD28 (UniProt O15084), for which the log2 fold change was inactive: -0.011.

Consider ALS2 (UniProt Q96Q42), for which the log2 fold change was inactive: 0.013.

As to ANTXR2 isoform 4 (UniProt P58335), the log2 fold change was inactive: 0.036.

Regarding ANAPC4 isoform 3 (UniProt Q9UJX5), the log2 fold change is inactive: 0.021.

Consider ALMS1 (UniProt Q8TCU4), for which the log2 fold change was inactive: 0.046.

As to AKT1S1 isoform 3 (UniProt Q96B36), the log2 fold change was inactive: 0.045.

On to ALDH18A1 (UniProt P54886), for which the log2 fold change was inactive: 0.006.

With AP2S1 (UniProt P53680), the log2 fold change is inactive: 0.015.

Take AP3D1 isoform 5 (UniProt O14617): the log2 fold change was inactive: 0.033.

Turning to AP1B1 (UniProt Q10567), the log2 fold change was inactive: 0.031.

Consider ALG2 (UniProt Q9H553), for which the log2 fold change is inactive: -0.077.

For the target ALDH2 (UniProt P05091), the log2 fold change was inactive: -0.001.

As for ANP32B (UniProt Q92688), the log2 fold change was inactive: 0.002.

Regarding AP1G2 (UniProt O75843), the log2 fold change is inactive: 0.012.

For the target ANGEL2 (UniProt Q5VTE6), the log2 fold change was inactive: -0.09.

For the target ANKRD13A (UniProt Q8IZ07), the log2 fold change was inactive: -0.038.

With ALDH1L2 (UniProt Q3SY69), the log2 fold change was inactive: 0.033.

In the case of ALAD (UniProt P13716), the log2 fold change was inactive: 0.031.

For AP3B2 isoform 4 (UniProt Q13367), the log2 fold change was inactive: 0.015.

In the case of ANAPC2 (UniProt Q9UJX6), the log2 fold change is inactive: 0.043.

For ALDH1A2 (UniProt O94788), the log2 fold change is inactive: 0.069.

ANXA3 (UniProt P12429): the log2 fold change is inactive: 0.013.

ANKRD27 (UniProt Q96NW4): the log2 fold change was inactive: 0.016.

On to ANAPC10 (UniProt Q9UM13), for which the log2 fold change was inactive: -0.015.

As for ALG1 (UniProt Q9BT22), the log2 fold change was inactive: -0.079.
